# Assay results

Data taken from PubChem BioAssay AID1224904, deposited by Broad Institute (2016).

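Selective DUX4 reporter inhibition in doxycycline-induced 293T-iDUX4 cells, scored as Gaussia percent activity minus Italica percent activity, after a 24-hour treatment.
The test concentration is not given here.
Percent difference between the Gaussia and Italica channels; more negative values mean more selective suppression of the DUX4 reporter, and higher values mean less activity.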

Values are in %.
How 0% and 100% were set is not given here.
Common to all entries: measured here: selective DUX4 reporter inhibition.
Part of the compounds only, not a random draw; the main read-out is not listed here.

| # | compound | Gaussia minus Italica difference (%) |
|---|---|---|
| 1 | `O=C(C[C@@H]1C=C[C@H](NC(=O)Nc2ccccc2F)[C@H](CO)O1)NCc1ccc(-c2ccccc2)cc1` | -4.385 |
| 2 | `C[C@H](CO)N1C[C@H](C)[C@H](CN(C)S(=O)(=O)c2ccc(C(F)(F)F)cc2)OCc2ccccc2-c2c(n(C)c3ccccc23)C1=O` | 5.237 |
| 3 | `OC[C@@H]1Nc2ccc(-c3cccc(F)c3)cc2[C@H]2[C@@H]1CCN2Cc1ccncc1` | -18.7 |
| 4 | `O=C(C[C@@H]1CC[C@@H]2[C@H](COC[C@H](O)CN2C(=O)c2ccccc2F)O1)N1CCN(c2ccccc2)CC1` | -4.081 |
| 5 | `C[C@@H]1CN([C@@H](C)CO)C(=O)c2c(c3ccccc3n2C)-c2ccccc2CO[C@H]1CN(C)Cc1ccc(C(F)(F)F)cc1` | -15.87 |
| 6 | `Cc1cccc(S(=O)(=O)N2C[C@@H]3N[C@H](C2)C3c2ccc(-c3ccccc3F)cc2)c1` (stereo partly specified) | -16.96 |
| 7 | `O=C(C[C@@H]1C[C@H]2c3cc(NC(=O)Nc4ccc(C(F)(F)F)cc4)ccc3O[C@H]2[C@H](CO)O1)NCc1cc(F)ccc1F` | -7.429 |
| 8 | `COc1ccc(S(=O)(=O)N2C[C@@H](O)COC[C@H]3O[C@@H](CC(=O)NCc4ccc(Cl)c(Cl)c4)CC[C@@H]32)cc1` | -2.048 |
| 9 | `Cc1ccccc1-c1ccc([C@H]2[C@H](CO)N3CCCCN(S(=O)(=O)Cc4ccccc4)C[C@@H]23)cc1` | -7.535 |
| 10 | `CCC(=O)N1CCCCN2[C@@H](CO)[C@@H](c3ccc(C#Cc4ccccc4)cc3)[C@@H]2C1` | -5.729 |
| 11 | `COc1ccc2c3c([nH]c2c1)[C@H](CO)N(Cc1ccccc1F)CC31CN(CC2CC2)C1` | -4.628 |
| 12 | `COc1cccc(S(=O)(=O)Nc2ccc3c(c2)[C@H]2C[C@@H](CC(=O)NCc4ccc(Cl)cc4)O[C@@H](CO)[C@H]2O3)c1` | -6.584 |
| 13 | `COc1ccc2c3c(n(C)c2c1)[C@@H](CO)N(C(=O)Nc1ccc(F)cc1)CC31CN(C(=O)c2cccnc2)C1` | -9.838 |
| 14 | `O=C(C[C@@H]1CC[C@@H]2[C@H](COC[C@H](O)CN2Cc2cc(F)ccc2F)O1)NCc1ccc(Oc2ccccc2)cc1` | -1.694 |
| 15 | `CN(C)C(=O)c1cccc(-c2ccc3c(c2)[C@@H]2[C@@H](CCN2Cc2ccccc2F)[C@@H](CO)N3)c1` | -0.7766 |
| 16 | `CCC(=O)N1CC(=O)N2[C@H](C1)[C@@H](c1ccc(C#Cc3cccc(F)c3)cc1)[C@@H]2CO` | -4.51 |
| 17 | `COc1cccc(-c2ccc([C@@H]3[C@H]4CN(S(=O)(=O)c5cn(C)cn5)CCCCN4[C@H]3CO)cc2)c1` | 3.426 |
| 18 | `COc1ccc2c3c(n(C)c2c1)[C@H](CO)N(Cc1ccc(Cl)cc1)CC31CCN(C(=O)NC(C)C)CC1` | -15.7 |
| 19 | `CCCNC(=O)N1C[C@@H]2N[C@H](C1)C2c1ccc(-c2cccc(OC)c2)cc1` (stereo partly specified) | -14.8 |
| 20 | `CC(C)CC#Cc1ccc([C@@H]2[C@@H](CO)N3CCCCN(S(=O)(=O)c4ccc(F)cc4)C[C@@H]23)cc1` | -17.02 |
| 21 | `O=C(c1ccc2c(c1)OCO2)N1CC(=O)N2[C@H](CO)[C@H](c3ccc(C#CCC4CCCC4)cc3)[C@H]2C1` | 1.427 |
| 22 | `C[C@@H]1CCCCO[C@@H](CN(C)C(=O)NC2CCCCC2)[C@H](C)CN([C@@H](C)CO)C(=O)c2cc(NC(=O)Cc3ccccc3)ccc2O1` | 8.793 |
| 23 | `C[C@@H](NC(=O)C[C@H]1C[C@H]2c3cc(NS(=O)(=O)c4ccc(F)cc4)ccc3O[C@H]2[C@H](CO)O1)c1ccccc1` | -3.967 |
| 24 | `COc1cccc(-c2ccc3c(c2)[C@H]2[C@H](CCN2C(=O)NC2CCCC2)[C@H](CO)N3C)c1` | 21.88 |
| 25 | `CC(C)CC#Cc1ccc([C@@H]2[C@H](CO)N3CCCCN(C(=O)Nc4ccccc4)C[C@@H]23)cc1` | 28.62 |
| 26 | `O=C(C[C@H]1CC[C@H]2[C@@H](COC[C@@H](O)CN2Cc2cc(F)ccc2F)O1)N1CCc2ccccc2C1` | -2.786 |
| 27 | `O=C(c1ccccn1)N1CC2(C1)[C@@H](c1ccccc1)[C@H](CO)N2Cc1ccc(Cl)cc1` | -10.41 |
| 28 | `C[C@H](CO)N1C[C@H](C)[C@@H](CN(C)C(=O)c2cc(-c3ccccc3)on2)OCc2cn(nn2)CCCC1=O` | -13.01 |
| 29 | `COc1ccc2c3c([nH]c2c1)[C@H](CO)N(S(C)(=O)=O)CC31CCN(Cc2cccc(F)c2)CC1` | 25.49 |
| 30 | `C[C@@H](NC(=O)C[C@@H]1C[C@H]2c3cc(NC(=O)Nc4ccccc4F)ccc3O[C@H]2[C@H](CO)O1)c1ccccc1` | -8.238 |
| 31 | `CN(C)C(=O)c1cccc(-c2ccc(C3[C@@H]4CN(S(=O)(=O)c5ccc(F)cc5)C[C@H]3N4)cc2)c1` (stereo partly specified) | -19.48 |
| 32 | `COc1ccc2c3c([nH]c2c1)[C@H](CO)N(CC1CC1)CC31CN(C(=O)c2ccccc2F)C1` | -17.28 |
| 33 | `O=C(C[C@@H]1CC[C@H]2[C@@H](COC[C@H](O)CN2C(=O)c2ccccc2F)O1)NCc1ccc(Cl)c(Cl)c1` | -3.283 |
| 34 | `COCC#Cc1ccc2c(c1)O[C@@H](CN(C)S(=O)(=O)c1ccc(OC)cc1)[C@H](C)CN([C@H](C)CO)S2(=O)=O` | 10.99 |
| 35 | `COc1cccc(S(=O)(=O)N(C)C[C@H]2OCc3ccccc3-c3c(n(C)c4ccccc34)C(=O)N([C@@H](C)CO)C[C@@H]2C)c1` | 1.328 |
| 36 | `CS(=O)(=O)Nc1ccc2c(c1)[C@@H]1C[C@H](CC(=O)NCc3ccc(Oc4ccccc4)cc3)O[C@@H](CO)[C@@H]1O2` | -10.65 |
| 37 | `C[C@@H](NC(=O)C[C@@H]1CC[C@H]2[C@@H](COC[C@H](O)CN2C(=O)Nc2cc(Cl)cc(Cl)c2)O1)c1ccccc1` | 1.84 |
| 38 | `O=C(Nc1ccccc1)N1C[C@@H]2N[C@H](C1)C2c1ccc(-c2ccccc2)cc1` (stereo partly specified) | 15.21 |
| 39 | `C[C@H](NC(=O)C[C@H]1CC[C@H]2[C@@H](COC[C@@H](O)CN2C(=O)Nc2cc(Cl)cc(Cl)c2)O1)c1ccccc1` | -2.782 |
| 40 | `C[C@H]1CN([C@@H](C)CO)C(=O)c2c(c3ccccc3n2C)-c2ccccc2CO[C@H]1CN(C)C(=O)Nc1ccc(-c2ccccc2)cc1` | 12.79 |
| 41 | `COc1ccccc1C#Cc1ccc([C@H]2[C@H](CO)N3CCCCN(S(C)(=O)=O)C[C@@H]23)cc1` | -20.9 |
| 42 | `C[C@@H]1CN([C@@H](C)CO)C(=O)CCCn2nncc2CO[C@H]1CN(C)Cc1ccc(Cl)c(Cl)c1` | -2.797 |
| 43 | `COc1ccccc1-c1ccc2n(c1=O)C[C@@H]1[C@@H](CO)[C@H](C(=O)N3CCOCC3)[C@H]2N1CC1CC1` | -24.62 |
| 44 | `O=C(C[C@H]1CC[C@H]2[C@@H](COC[C@H](O)CN2Cc2ccc(C(F)(F)F)cc2)O1)NCCc1ccccc1` | -11.73 |
| 45 | `C[C@@H]1CN([C@H](C)CO)S(=O)(=O)c2ccc(/C=C/c3ccccc3)cc2O[C@H]1CN(C)C(=O)NC1CCCCC1` | 8.147 |
| 46 | `O=C(C[C@@H]1CC[C@H]2[C@@H](COC[C@H](O)CN2Cc2ccc(C(F)(F)F)cc2)O1)N1CCc2ccccc2C1` | 4.39 |
| 47 | `O=S(=O)(c1ccccc1)N1CC2(C1)[C@H](c1ccccc1)[C@@H](CO)N2CC1CCCC1` | -4.511 |
| 48 | `COc1ccccc1-c1ccc2c(c1)[C@H]1[C@H](CCN1S(=O)(=O)c1ccccc1)[C@@H](CO)N2` | 30 |
| 49 | `O=C(c1ccc2c(c1)OCO2)N1C[C@@H]2N[C@H](C1)C2c1ccc(-c2cccnc2)cc1` (stereo partly specified) | -18.61 |

The last 2 entries again:

{"compound": "COc1ccccc1-c1ccc2c(c1)[C@H]1[C@H](CCN1S(=O)(=O)c1ccccc1)[C@@H](CO)N2", "Gaussia minus Italica difference (%)": "30"}
{"compound": "O=C(c1ccc2c(c1)OCO2)N1C[C@@H]2N[C@H](C1)C2c1ccc(-c2cccnc2)cc1", "stereo": "stereo partly specified", "Gaussia minus Italica difference (%)": "-18.61"}